According to article PMC2967539:
These are yes or no findings as the source states them, for the method shown. In cells and extracts the contact can be indirect. For some assays here: Binding can be weak; no strength is given.

Sequences of proteins named here, by UniProt entry; tags and fusion partners are left off. A change or cut given only in a name is not applied to a line headed by its entry.
UniProt P27487: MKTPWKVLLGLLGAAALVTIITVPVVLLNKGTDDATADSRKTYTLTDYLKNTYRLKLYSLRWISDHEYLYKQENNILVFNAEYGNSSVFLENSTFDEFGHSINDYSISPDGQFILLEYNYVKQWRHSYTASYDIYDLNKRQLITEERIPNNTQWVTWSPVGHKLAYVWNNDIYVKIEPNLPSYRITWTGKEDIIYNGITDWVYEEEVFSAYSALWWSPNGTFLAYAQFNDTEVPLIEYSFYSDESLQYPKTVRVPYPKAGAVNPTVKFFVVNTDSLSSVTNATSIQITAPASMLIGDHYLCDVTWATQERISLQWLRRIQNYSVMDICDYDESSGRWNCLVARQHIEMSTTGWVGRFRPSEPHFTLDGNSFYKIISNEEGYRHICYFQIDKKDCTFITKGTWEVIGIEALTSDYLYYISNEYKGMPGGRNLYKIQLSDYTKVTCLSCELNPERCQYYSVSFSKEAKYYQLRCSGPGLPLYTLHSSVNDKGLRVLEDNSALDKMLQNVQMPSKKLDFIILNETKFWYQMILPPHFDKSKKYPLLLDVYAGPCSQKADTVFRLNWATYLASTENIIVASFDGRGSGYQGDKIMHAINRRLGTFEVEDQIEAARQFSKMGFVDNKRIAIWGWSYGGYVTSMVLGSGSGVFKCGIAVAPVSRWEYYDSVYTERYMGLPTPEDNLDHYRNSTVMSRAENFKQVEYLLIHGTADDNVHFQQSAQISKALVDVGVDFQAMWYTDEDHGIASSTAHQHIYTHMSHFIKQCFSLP
UniProt P04610: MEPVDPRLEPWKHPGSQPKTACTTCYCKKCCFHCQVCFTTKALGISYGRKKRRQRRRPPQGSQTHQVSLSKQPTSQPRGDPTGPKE

Assays:
[1] = target: human dipeptidyl peptidase IV (human) (UniProt P27487); experiment: co-IP; Tat/DPPIV co-expressing Sf9 cells solubilised with Triton X100
[2] = target: human dipeptidyl peptidase IV (human) (UniProt P27487); experiment: condition: only mixed cell lysates of independently expressed proteins; co-IP; mixed cell lysates of independently expressed human-DPPIV and HIV1-Tat; immunoprecipitation tests
[3] = target: human dipeptidyl peptidase IV (human) (UniProt P27487); experiment: co-IP; whole-cell lysates of Sf9 cells co-infected with Tat and DPPIV baculoviruses for 72 h, solubilised in PBS with 2% n-dodecyl-beta-D maltoside; anti-Tat mAb or anti-DPPIV pAb on protein-A/G-Sepharose, 4 h at 4 °C; washed with PBS pH 8.0, 0.5% n-octyl-beta-D-glucopyranoside; western blot
[4] = target: human dipeptidyl peptidase IV (human) (UniProt P27487); experiment: co-IP; crude membrane extracts instead of whole-cell lysates; immunoprecipitation tests
[5] = target: HIV1 transcription transactivator protein (Tat-BRU) (HIV-1 (BRU)) (UniProt P04610); experiment: co-IP; whole-cell lysates of Sf9 cells co-infected with Tat and DPPIV baculoviruses for 72 h, solubilised in PBS with 2% n-dodecyl-beta-D maltoside; anti-Tat mAb or anti-DPPIV pAb on protein-A/G-Sepharose, 4 h at 4 °C; washed with PBS pH 8.0, 0.5% n-octyl-beta-D-glucopyranoside; western blot

Substance	binding [1]	binding [2]	binding [3]	binding [4]	binding [5]
HIV1 transcription transactivator protein (Tat-BRU) (from UniProt P04610 1-86)	no binding (only cells solubilised with Triton X100)	no binding	binds	no binding (only crude membrane extracts)	
human dipeptidyl peptidase IV (from UniProt P27487) (enzyme)					binds
